Source: patent US20170157250A1
Results are given in words; binding and its absence hold for the method and conditions named. Binding calls can cover weak binding; strength is not graded here.

Columns and labels:
[1] = target: human AXL with a cynomolgus monkey extracellular domain (ECD) (cynomolgus monkey (Macaca fascicularis); human (Homo sapiens)); assay: flow cytometry, HEK293T cells transfected with human AXL with cynomolgus ECD
[2] = target: Homo sapiens AXL-Mus musculus Ig1 domain (p33-AXL-mIg1) (human-mouse chimera); assay: flow cytometry, 1 µg/mL antibody, HEK293F cells expressing hsAxl-mmIg1 (human AXL with the mouse Ig1 domain), PE-anti-human IgG

| binding [1] | binding [2] | Binder |
| --- | --- | --- |
| binds | binds | IgG1-AXL-733 (antibody, V domains shown) VH: QVQLVESGGGVVQPGRSLRLSCAASGFSFSTYAMHWVRQAPGKGLEWVAVISYDGDNKYSADSVKGRFTISRDNSKNTLYLQMNSLRAEDTAVYYCARGRKLGIDAFDIWGQGTMVTVSS VL: AIQLTQSPSSLSASVGDRVTITCRASQGISSALAWYQQKPGKAPKLLIYDASSLESGVPSRFSGSGSGTDFTLTISGLQPEDFATYYCQQFNSYPFTFGPGTKVDIK |
| binds | binds | IgG1-AXL-183 (antibody, V domains shown) VH: QVQLQQWGAGLLKPSETLSLTCAVYGGSFSGYYWSWIRQPPGKGLEWIGEINQSGSTNYNPSLKSRVTISVDTSKNQFSLKLSSVTAADTSVYYCASGNWDHFFDYWGQGTLVTVSS VL: DIQMTQSPSSVSASVGDRVTITCRASQGISSWLAWYQHKPGKAPKLLIYATSSLQSGVTSRFSGSGSGTDFTLTISSLQPEDFATYYCQQAKSFPWTFGQGTKVEIK |
| binds |  | IgG1-AXL-183-N52Q (antibody, V domains shown) VH: QVQLQQWGAGLLKPSETLSLTCAVYGGSFSGYYWSWIRQPPGKGLEWIGEIQQSGSTNYNPSLKSRVTISVDTSKNQFSLKLSSVTAADTSVYYCASGNWDHFFDYWGQGTLVTVSS VL: DIQMTQSPSSVSASVGDRVTITCRASQGISSWLAWYQHKPGKAPKLLIYATSSLQSGVTSRFSGSGSGTDFTLTISSLQPEDFATYYCQQAKSFPWTFGQGTKVEIK |
| binds | binds | IgG1-AXL-148 (antibody, V domains shown) VH: EVQLLESGGGLVQPGGSLRLSCAASGFTFSSYAMTWVRQAPGKGLEWVSAISISGGSTFYADSVKGRFTISRDNSKNTLYLQMNSLRAEDTAVYYCRGYSGYVYDAFDFWGQGTMVTVSS VL: DIQMTQSPSSLSASVGDRVTITCRASQGISNWLAWYQQKPEKAPKSLIYAASSLQSGVPSRFSGSGSGTDFTLTISSLQPEDFATYYCQQYNSYPLTFGGGTKVEIK |
